Assay results from publication PMC8825577.
These are yes or no findings as the source states them, for the method shown. Binding seen in cells or lysates may run through a third protein. Some results given as binding are weak or reduced against the parent protein; the word gives no strength.

Protein sequences, listed by entry. Tags and fused reporters are not part of them.
UniProt Q6PF93: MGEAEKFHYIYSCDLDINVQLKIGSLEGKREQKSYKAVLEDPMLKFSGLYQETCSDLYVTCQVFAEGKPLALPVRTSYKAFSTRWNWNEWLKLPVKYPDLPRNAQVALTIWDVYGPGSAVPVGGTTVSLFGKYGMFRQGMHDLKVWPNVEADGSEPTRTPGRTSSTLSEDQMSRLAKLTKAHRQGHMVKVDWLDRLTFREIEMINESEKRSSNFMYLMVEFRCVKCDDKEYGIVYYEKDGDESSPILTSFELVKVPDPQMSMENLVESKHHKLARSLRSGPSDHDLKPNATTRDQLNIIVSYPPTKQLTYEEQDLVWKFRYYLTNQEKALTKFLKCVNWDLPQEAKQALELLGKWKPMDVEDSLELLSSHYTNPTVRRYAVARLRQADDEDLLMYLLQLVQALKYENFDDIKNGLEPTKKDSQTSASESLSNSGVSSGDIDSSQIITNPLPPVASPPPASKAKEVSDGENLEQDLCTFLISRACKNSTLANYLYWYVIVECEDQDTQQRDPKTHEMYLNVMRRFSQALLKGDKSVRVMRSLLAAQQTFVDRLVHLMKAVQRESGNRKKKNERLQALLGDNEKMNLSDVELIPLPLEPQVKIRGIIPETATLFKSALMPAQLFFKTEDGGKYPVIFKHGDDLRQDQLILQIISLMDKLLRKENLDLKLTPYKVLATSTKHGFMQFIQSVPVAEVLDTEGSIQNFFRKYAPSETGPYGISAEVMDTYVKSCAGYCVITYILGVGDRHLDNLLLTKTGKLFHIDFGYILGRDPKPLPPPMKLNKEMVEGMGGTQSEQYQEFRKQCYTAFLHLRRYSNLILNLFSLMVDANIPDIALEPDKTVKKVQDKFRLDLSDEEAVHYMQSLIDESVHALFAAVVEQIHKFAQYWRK

Target: T1, CCZ1 (endogenous) (mouse (endogenous in N2a cells and mouse brain)) (UniProt Q8C1Y8)
T1 sequence: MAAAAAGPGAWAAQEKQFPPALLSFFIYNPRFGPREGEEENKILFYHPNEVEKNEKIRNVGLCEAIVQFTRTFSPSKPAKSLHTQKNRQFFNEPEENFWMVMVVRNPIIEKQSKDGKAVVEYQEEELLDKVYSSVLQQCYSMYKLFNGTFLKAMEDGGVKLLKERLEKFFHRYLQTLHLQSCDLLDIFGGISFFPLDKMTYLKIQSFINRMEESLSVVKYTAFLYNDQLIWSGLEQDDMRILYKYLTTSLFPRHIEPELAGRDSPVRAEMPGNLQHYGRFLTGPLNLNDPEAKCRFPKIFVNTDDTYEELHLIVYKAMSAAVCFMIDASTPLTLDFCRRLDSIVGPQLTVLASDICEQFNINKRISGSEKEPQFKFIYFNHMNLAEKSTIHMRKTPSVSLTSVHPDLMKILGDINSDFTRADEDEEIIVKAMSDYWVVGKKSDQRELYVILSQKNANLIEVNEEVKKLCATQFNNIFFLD
Test: co-IP; N2a cell and mouse brain tissue lysates; IP of the endogenous protein with CCZ1 antibody; immunoblot with LC3 and VPS34 antibodies; CCZ1-bound VPS34 from WT and 3xTg AD mouse brain also taken to a lipid kinase assay

With “PIK3C3/VPS34 (endogenous) (from UniProt Q6PF93 1-887) (enzyme)” the binding was “binds”.
